Experimental data: PubChem BioAssay AID1259308 (NCATS, 2017)
The whole screen tested about 59,000 reagents; below is a part drawn at random. About 1,510 of all reagents (2.6%) count as active. 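Calls use total luciferase alone and ignore viability, so some active siRNAs may act by altering cell number.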 Entries without a mark were called inactive.

Assay: 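Candidate targets for better recombinant protein yield in mammalian cells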 (primary screen)
System: human HEK293 embryonic kidney cells stably expressing firefly luciferase (HEK-CMV-Luc2-Hygro)
Reagent: single siRNA against human genes, 0.8 pmol siRNA per well
Timing: 72 h
Read-out: 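Luciferase light (ONE-Glo) measured on one replicate plate set and viability (CellTiter-Glo) on the other, scaled to a negative control siRNA, with robust z-scores and luciferase per cell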
Scale: total luciferase, z-score and total luciferase, % of control: higher = more reporter protein produced; luciferase per cell, z-score: higher = more reporter output per viable cell; viable cells, % of control: higher = more viable cells
Hit rule: 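An siRNA counts as active if its total luciferase robust z-score exceeds 3; genes with two or more such siRNAs out of three were retested with fresh siRNAs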
Meaning of the calls: active = raised luciferase; inactive = no rise

| gene knocked down | PubChem SID | total luciferase, z-score | total luciferase, % of control | luciferase per cell, z-score | viable cells, % of control |
| --- | --- | --- | --- | --- | --- |
| PTP4A3 (GeneID 11156) | SID160730069 | -0.307 | 75.8 | 0.116 | 82.1 |
| PTP4A3 (GeneID 11156) | SID160730070 | 0.649 | 94.8 | 0.582 | 90.9 |
| PTP4A3 (GeneID 11156) | SID160730071 | 0.402 | 89.9 | 0.239 | 94.3 |
| YDJC (GeneID 150223) | SID160724870 | -0.0594 | 80.7 | -0.356 | 99 |
| YDJC (GeneID 150223) | SID160724872 | -0.982 | 62.4 | -1.58 | 106 |
| YDJC (GeneID 150223) | SID160758927 | -2.12 | 39.8 | 0.0422 | 44 |
| ABCF2 (GeneID 10061) | SID160724764 | -0.721 | 67.5 | -1.01 | 98.5 |
| ABCF2 (GeneID 10061) | SID160724773 | -0.225 | 77.4 | -0.0814 | 88.4 |
| ABCF2 (GeneID 10061) | SID160724781 | -1.1 | 60 | -1.6 | 102 |
| COL6A4P2 (GeneID 646300) | SID160769832 | 0.797 | 97.7 | 0.626 | 92.6 |
| COL6A4P2 (GeneID 646300) | SID160769833 | -0.146 | 79 | 0.0311 | 87.5 |
| COL6A4P2 (GeneID 646300) | SID160769834 | -1.59 | 50.3 | -2.16 | 99.1 |
| ZNF471 (GeneID 57573) | SID160746309 | -0.317 | 75.6 | -0.409 | 94 |
| ZNF471 (GeneID 57573) | SID160746310 | -1.17 | 58.6 | -1.57 | 99 |
| ZNF471 (GeneID 57573) | SID160746311 | 0.98 | 101 | 0.442 | 101 |
| OR14I1 (GeneID 401994) | SID160767398 | 0.827 | 98.3 | 0.577 | 94.4 |
| OR14I1 (GeneID 401994) | SID160767399 | -0.369 | 74.5 | -0.127 | 86.1 |
| OR14I1 (GeneID 401994) | SID160767401 | -0.346 | 75 | -0.124 | 86.6 |
| CYP4X1 (GeneID 260293) | SID160762643 | 1.45 | 111 | 2.3 | 67.5 |
| CYP4X1 (GeneID 260293) | SID160762644 | 1.51 | 112 | 0.916 | 98.3 |
| CYP4X1 (GeneID 260293) | SID160762645 | -0.501 | 71.9 | -0.494 | 91.5 |
| UPP1 (GeneID 7378) | SID160718639 | 0.178 | 85.4 | -0.031 | 96.2 |
| UPP1 (GeneID 7378) | SID160718640 | 1.86 | 119 | 1.08 | 100 |
| UPP1 (GeneID 7378) | SID160718641 | -3 | 22.2 | -3.27 | 58.7 |
| ATP8B3 (GeneID 148229) | SID160758667 | -0.615 | 69.7 | -0.386 | 86.2 |
| ATP8B3 (GeneID 148229) | SID160758668 | 1.27 | 107 | 1.35 | 83.8 |
| ATP8B3 (GeneID 148229) | SID160758669 | -0.0199 | 81.5 | 0.526 | 79.3 |
| APOBEC3C (GeneID 27350) | SID160738787 | 0.154 | 84.9 | -0.0975 | 97.4 |
| APOBEC3C (GeneID 27350) | SID160738788 | -1.11 | 59.8 | -1.09 | 89.2 |
| APOBEC3C (GeneID 27350) | SID160738789 | -0.124 | 79.4 | 0.307 | 81.9 |
| PZP (GeneID 5858) | SID160715509 | 0.263 | 87.1 | 0.074 | 95.5 |
| PZP (GeneID 5858) | SID160715511 | 0.524 | 92.3 | -0.122 | 107 |
| PZP (GeneID 5858) | SID160731631 | -0.621 | 69.5 | -0.868 | 97.6 |
| LINC02817 (GeneID 400804) | SID160767053 | 0.998 | 102 | 0.481 | 100 |
| LINC02817 (GeneID 400804) | SID160767054 | -1 | 62 | -1 | 90.1 |
| LINC02817 (GeneID 400804) | SID160767055 | 6.61 (active) | 213 | 4.6 | 70.9 |
| ABCA15P (GeneID 400508) | SID160733311 | 3.16 (active) | 145 | 2.25 | 89.5 |
| ABCA15P (GeneID 400508) | SID160766972 | -0.281 | 76.3 | -0.382 | 94.3 |
| ABCA15P (GeneID 400508) | SID160766973 | -0.772 | 66.5 | -1.07 | 98.5 |
| ERAS (GeneID 3266) | SID160775300 | -1 | 62 | -1.62 | 106 |
| ERAS (GeneID 3266) | SID160775301 | -0.755 | 66.9 | -1.11 | 100 |
| ERAS (GeneID 3266) | SID160775302 | 2.16 | 125 | 1.43 | 95.7 |
| CCL1 (GeneID 6346) | SID160716437 | -0.469 | 72.6 | -0.763 | 99.1 |
| CCL1 (GeneID 6346) | SID160716438 | 1.55 | 113 | 0.656 | 106 |
| CCL1 (GeneID 6346) | SID160731695 | -1.07 | 60.6 | -0.749 | 82.5 |
| PHF24 (GeneID 23349) | SID160732755 | 0.037 | 82.6 | 0.559 | 79.7 |
| PHF24 (GeneID 23349) | SID160736072 | -0.373 | 74.5 | -0.356 | 91.4 |
| PHF24 (GeneID 23349) | SID160736073 | 0.4 | 89.8 | 0.0014 | 100 |
| FLT3LG (GeneID 2323) | SID160723766 | 0.156 | 85 | 1.02 | 72.5 |
| FLT3LG (GeneID 2323) | SID160723767 | -0.127 | 79.4 | -0.462 | 100 |
| FLT3LG (GeneID 2323) | SID160766641 | 0.298 | 87.8 | -0.0922 | 101 |
| FOXD3 (GeneID 27022) | SID160724357 | 1.3 | 108 | 0.56 | 104 |
| FOXD3 (GeneID 27022) | SID160724359 | 0.137 | 84.6 | -0.364 | 104 |
| FOXD3 (GeneID 27022) | SID160724360 | 1.62 | 114 | 3.14 | 55.8 |
| PKIB (GeneID 5570) | SID160714910 | 0.232 | 86.5 | 0.0956 | 94.3 |
| PKIB (GeneID 5570) | SID160714911 | -0.452 | 72.9 | -0.676 | 97.3 |
| PKIB (GeneID 5570) | SID160731525 | 1.16 | 105 | 0.423 | 105 |
| MYF5 (GeneID 4617) | SID160777641 | -0.877 | 64.4 | -0.0028 | 72.1 |
| MYF5 (GeneID 4617) | SID160777642 | -1.04 | 61.3 | -1.26 | 95.4 |
| MYF5 (GeneID 4617) | SID160777643 | 1.73 | 116 | 0.889 | 103 |
| PTCD1 (GeneID 26024) | SID160732852 | -0.0864 | 80.2 | -0.102 | 92 |
| PTCD1 (GeneID 26024) | SID160737475 | 5.04 (active) | 182 | 4.49 | 62.3 |
| PTCD1 (GeneID 26024) | SID160737476 | -0.033 | 81.2 | 0.324 | 83.3 |
| CAMK4 (GeneID 814) | SID160735997 | 0.711 | 96 | 0.783 | 87.3 |
| CAMK4 (GeneID 814) | SID160736008 | -0.814 | 65.7 | -1.24 | 102 |
| CAMK4 (GeneID 814) | SID160736019 | -0.792 | 66.1 | -0.415 | 82.4 |
| RAE1 (GeneID 8480) | SID160720131 | 0.37 | 89.2 | 0.195 | 94.7 |
| RAE1 (GeneID 8480) | SID160720132 | -1.61 | 49.9 | -1.39 | 80.4 |
| RAE1 (GeneID 8480) | SID160720133 | 1.67 | 115 | 1.14 | 95.1 |
| IL33R (GeneID 9173) | SID160721646 | 0.388 | 89.6 | -0.247 | 107 |
| IL33R (GeneID 9173) | SID160721647 | -0.176 | 78.4 | 0.501 | 76.8 |
| IL33R (GeneID 9173) | SID160732143 | -0.986 | 62.3 | -0.677 | 83.2 |
| SPAG1 (GeneID 6674) | SID160717238 | 2.63 | 134 | 1.33 | 106 |
| SPAG1 (GeneID 6674) | SID160717239 | -0.177 | 78.4 | -0.381 | 96.8 |
| SPAG1 (GeneID 6674) | SID160717240 | -0.914 | 63.7 | -0.43 | 79.7 |

Entries listed above called active (3):
| gene knocked down | PubChem SID | total luciferase, z-score | total luciferase, % of control | luciferase per cell, z-score | viable cells, % of control |
| --- | --- | --- | --- | --- | --- |
| LINC02817 (GeneID 400804) | SID160767055 | 6.61 (active) | 213 | 4.6 | 70.9 |
| ABCA15P (GeneID 400508) | SID160733311 | 3.16 (active) | 145 | 2.25 | 89.5 |
| PTCD1 (GeneID 26024) | SID160737475 | 5.04 (active) | 182 | 4.49 | 62.3 |
